According to PMC11599123:
No constants are given. Whether binding was seen depends on the method and setting. Binding seen in cells or lysates may run through a third protein. A yes stands for co-enrichment or nearness to the bait. Other partners may have been found. Sequences can lack the tags named with a protein.

Chains of the proteins cited; added tags and fusions are not shown.
UniProt P61589: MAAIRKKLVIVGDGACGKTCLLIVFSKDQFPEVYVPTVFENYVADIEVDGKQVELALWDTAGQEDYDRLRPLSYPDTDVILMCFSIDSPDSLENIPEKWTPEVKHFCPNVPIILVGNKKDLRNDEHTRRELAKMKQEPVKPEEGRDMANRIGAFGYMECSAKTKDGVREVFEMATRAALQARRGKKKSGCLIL

Target: T1, GST-RhoGDI1 (UniProt Q5XI73)
T1 sequence: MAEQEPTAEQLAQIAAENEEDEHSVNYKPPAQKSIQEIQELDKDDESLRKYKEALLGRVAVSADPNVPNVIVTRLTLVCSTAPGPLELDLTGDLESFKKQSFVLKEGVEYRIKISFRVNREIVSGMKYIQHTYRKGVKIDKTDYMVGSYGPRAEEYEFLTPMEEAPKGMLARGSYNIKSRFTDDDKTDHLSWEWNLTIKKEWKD
Assay: affinity purification with mass spectrometry; GST-RhoGDIs immobilised on glutathione agarose beads, incubated with RBL-2H3 lysate 1 h at 4 °C (50 mM HEPES pH 7.5, 50 mM NaCl, 5 mM MgCl2, 1% Triton X-100); in-gel digestion of bands from the 20 to 25 kDa region, nano-LC MS, SEQUEST; only the target purified

RhoA, endogenous in RBL-2H3 cells (from UniProt P61589 1-193)
binding: binds
